# Source: PubChem BioAssay AID504834 (National Center for Advancing Translational Sciences (NCATS), 2011)
# The whole screen tested about 320,000 compounds, of which about 22,000 (6.9%) were called active. The inconclusive results got no clear call from the source; some entries with a clear call stand among them for comparison. The call rests on the fitted dose curve; in most records, active means well fitted inhibition curve with a large enough effect; inconclusive means small, poorly fitted or top-dose-only effect, or another doubt; inactive means no such curve, though single readings can be large or run the other way. Potencies of inconclusive entries are doubtful fits and often do not repeat.
# Test: Primary qHTS for delayed death inhibitors of the malarial parasite plastid, 96 hour incubation
# Details: P. falciparum luciferase reporter growth; series mostly up to 28.7 µM
# In short: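 Compounds incubated with erythrocytes infected by luciferase-expressing P. falciparum (2% hematocrit, 0.05% parasitemia final) for 96 hours, 37 C in 5% CO2. Growth inhibition scored as decreased luciferase luminescence.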
# Potency means the concentration at half of the fitted maximal effect.
row,SMILES,Potency
1,Fc1ccc(CN2CCC(Cc3ccccc3)CC2)cc1F,"inconclusive: 18.5 µM [inhibitor, single point]"
2,Cc1ccc(-n2cc(S(=O)(=O)c3ccc(C)cc3)[nH]c2=O)cc1,"inconclusive: 0.0033 µM [inhibitor, full curve, poor fit]"
3,Cc1ccc(C)c2sc(N)nc12,"inconclusive: 8.28 µM [inhibitor, partial curve]"
4,C=C(C)CNC(=S)N/N=C/c1ccccc1OCC(=O)O,"inconclusive: 0.0738 µM [inhibitor, full curve, poor fit]"
5,COc1cccc(N2CCN(C(=O)CN(C)S(=O)(=O)c3ccc4c(c3)c(=O)n(C)c(=O)n4C)CC2)c1,"inconclusive: 0.828 µM [inhibitor, partial curve, poor fit]"
6,CCc1nnc(NC(=O)COc2ccc3ccccc3c2)s1,"inconclusive: 8.28 µM [inhibitor, partial curve]"
7,COc1ccc(-n2nc(C(=O)NCC(=O)NCCCN3CC(C)CC(C)C3)c3ccccc3c2=O)cc1Cl (stereo unspecified),inactive
8,CCC(Sc1nc2cc3c(cc2c(=O)n1Cc1ccco1)OCO3)C(=O)Nc1cccc(OC)c1 (stereo unspecified),"inconclusive: 18.5 µM [inhibitor, single point]"
9,COc1cccc(CC(=O)Nc2nc(C)cs2)c1,inactive
10,CCc1nccn1S(=O)(=O)c1ccc2ccc(C)cc2c1,inactive
11,O=C(NCc1ccc(F)cc1)C1CCN(S(=O)(=O)c2cccnc2)CC1,"inconclusive: 18.5 µM [inhibitor, single point]"
12,CCOc1ccc(/C=N/Nc2nc(N3CCCC3)nc(N3CCCC3)n2)cc1OC,"inconclusive: 9.28 µM [inhibitor, partial curve, poor fit]"
13,Cc1cccc(CSc2nc3ccncc3n2CC(=O)Nc2cc(C)cc(C)c2)c1,active: 8.28 µM
14,Cc1c(C)c2ccc(OC(C)C(=O)NCCCn3ccnc3)c(C)c2oc1=O (stereo unspecified),"inconclusive: 7.38 µM [inhibitor, partial curve]"
15,Cc1ccc2[nH]c(=O)c3cc(C(=O)NCC4CCCO4)sc3c2c1 (stereo unspecified),"inconclusive: 4.15 µM [inhibitor, partial curve, poor fit]"
16,O=S(=O)(/C=C/c1ccccc1)N1CCN(Cc2ccccc2)CC1,inactive
17,COc1cccc(NC(=O)CN(C)C(=O)/C=C/c2cn(Cc3ccccc3)nc2-c2cccnc2)c1,"inconclusive: 11.7 µM [inhibitor, partial curve, poor fit]"
18,O=S(=O)(Nc1nc2c(s1)CCCC2)c1ccc(Br)cc1,inactive
19,Cc1ccc2c(CSc3nnc(C4CC4)n3N)cc(=O)oc2c1,"inconclusive: 11.7 µM [inhibitor, single point]"
20,Cc1cccc(NC(=O)CCCN=C2NS(=O)(=O)c3ccccc32)c1C,"inconclusive: 4.15 µM [inhibitor, partial curve, poor fit]"
21,O=C(CN1CCCCC1)N1CCc2ccccc21,inactive
22,CCC(=O)OC1(c2cccc(C)c2)CC(C)N(C)CC1C (stereo unspecified),"inconclusive: 18.5 µM [inhibitor, single point]"
23,N#Cc1ccccc1OCC(=O)NC(=O)NCc1ccccc1,inactive
24,Cc1c(C(=O)NCCC2=CCCCC2)oc2ccc(S(=O)(=O)N3CCC4(CC3)OCCO4)cc12,inactive

row,SMILES,Potency
1,COc1ccc(C(O)C(CN2CCOCC2)c2ccccc2)cc1F (stereo unspecified),"inconclusive: 0.37 µM [inhibitor, partial curve, poor fit]"
2,CC(C)OC(=O)CC1C(=O)NCCN1C(=S)NC(=O)c1ccc(F)cc1 (stereo unspecified),inactive
3,O=C(Nc1cccnc1)c1cc(-c2ccco2)on1,inactive
4,COc1ccc(NS(=O)(=O)c2csc(C(=O)Nc3ccccc3)c2)cc1,"inconclusive: 18.5 µM [inhibitor, partial curve, poor fit]"
5,O=C(Cn1ccc(C(F)(F)F)n1)Nc1cccc(S(=O)(=O)N2CCCCC2)c1,"inconclusive: 18.5 µM [inhibitor, single point]"
6,Cc1cc(NC(=O)CSCc2nc(-c3cccc(F)c3)oc2C)no1,"inconclusive: 14.7 µM [inhibitor, single point]"
7,NC(=O)CN1C(=O)C2C3C=CC(C3)C2C1=O (stereo unspecified),"inconclusive: 13.1 µM [inhibitor, single point]"
8,Cc1csc(SCC(=O)Nc2nnc(C)s2)n1,inactive
9,CCOC(=O)C1=C(c2ccccc2)N=c2s/c(=C\c3cccc(O)c3)c(=O)n2C1c1cccs1 (stereo unspecified),"inconclusive: 10.4 µM [inhibitor, single point]"
10,Cc1nc(SCCC(=O)O)c2cc(-c3ccccc3)sc2n1,inactive
11,Cc1nn(-c2ccccc2)c(C)c1/C=N/Nc1nc2ccccc2[nH]1,"inconclusive: 1.04 µM [inhibitor, partial curve, poor fit]"
12,Cc1cccc(Sc2nc(-c3ccccc3)ncc2C(=O)O)c1,inactive
13,COc1ccccc1C(=O)Nc1ccc(S(=O)(=O)N2CCCCC2)cc1,"inconclusive: 11.7 µM [inhibitor, partial curve, poor fit]"
14,Cc1ccccc1Cn1nc(C)c(NC(=O)/C=C/c2cnn(C)c2C)c1C,"inconclusive: 2.33 µM [inhibitor, partial curve]"
15,CCCc1cc(C(=O)NC2CCCC2)no1,inactive
16,Nc1cc(Cl)ccc1C(=O)OCC(=O)NC1CCCCCCC1,inactive
17,COc1ccc(C2C(C#N)=C(C)NC(C)=C2C(=O)OC(C)C)c(OC)c1 (stereo unspecified),active: 4.65 µM
18,Cc1ccc2nc(-c3cccnc3)cc(C(=O)Nc3ccccc3[N+](=O)[O-])c2c1,"inconclusive: 3.7 µM [inhibitor, full curve, poor fit]"
19,COCCCNC(=S)Nc1ccc(C)cc1[N+](=O)[O-],inactive
20,Cc1[nH][nH]c(=O)c1C(c1ccc([N+](=O)[O-])cc1)c1c(C)[nH][nH]c1=O,"inconclusive: 20.8 µM [inhibitor, partial curve, poor fit]"
21,CCCN(CCC)S(=O)(=O)c1ccc(Cl)c([N+](=O)[O-])c1,inactive
22,CCOc1ccc(Nc2ccc(C(=O)O)cc2[N+](=O)[O-])cc1,"inconclusive: 13.1 µM [inhibitor, partial curve]"
23,CC(C)Sc1nc(SCC(=O)O)c2c3c(sc2n1)COC(C)(C)C3,"inconclusive: 4.15 µM [inhibitor, single point]"
24,COc1ccc(N2CCN(CCCNC(=O)CCCn3c(=O)[nH]c4ccsc4c3=O)CC2)cc1,"inconclusive: 16.5 µM [inhibitor, partial curve, poor fit]"

# 3 structures from above, ordered by heavy-atom count, ascending.
row,SMILES,Potency
3,Cc1ccc(C)c2sc(N)nc12,"inconclusive: 8.28 µM [inhibitor, partial curve]"
1,COc1ccc(C(O)C(CN2CCOCC2)c2ccccc2)cc1F (stereo unspecified),"inconclusive: 0.37 µM [inhibitor, partial curve, poor fit]"
5,COc1cccc(N2CCN(C(=O)CN(C)S(=O)(=O)c3ccc4c(c3)c(=O)n(C)c(=O)n4C)CC2)c1,"inconclusive: 0.828 µM [inhibitor, partial curve, poor fit]"

# (list continues)

row,SMILES,Potency
1,Cc1cc(C(=O)N[C@H](c2ccccc2)[C@@]2(C)C[C@@H]2[C@@H](C)C(=O)Nc2ccc3ccccc3c2)n(C)n1,active: 3.7 µM
2,Cc1c(OCC(=O)NCc2ccccn2)ccc2c(-c3ccccc3)cc(=O)oc12,"inconclusive: 10.4 µM [inhibitor, single point]"
3,CCCONC(=O)Nc1ccccc1[N+](=O)[O-],inactive
4,Cc1nc2cc(F)ccc2n1C1CCN(C(=O)c2ccc(F)cc2F)CC1,"inconclusive: 18.5 µM [inhibitor, single point]"
5,COc1ccc(-c2cc(OC)c3ccccc3n2)cc1,inactive
6,O=[N+]([O-])c1cccc(S(=O)(=O)Nc2ccc(Cc3ccncc3)cc2)c1,"inconclusive: 10.4 µM [inhibitor, single point]"
7,CC1=C(C(=O)NCc2ccccc2)C(c2cccs2)NC(=S)N1 (stereo unspecified),"inconclusive: 18.5 µM [inhibitor, single point]"
8,O=C1NN(c2ccccc2)C(=O)C2C1C1C=CC2C12CC2 (stereo unspecified),"inconclusive: 3.29 µM [inhibitor, partial curve, poor fit]"
9,COc1ccc2sc(N(CCN(C)C)C(=O)c3ccc4ccccc4c3)nc2c1,inactive
10,CCC(C)N1C(=O)S/C(=C/c2ccc(N3CCOCC3)cc2C)C1=O (stereo unspecified),inactive
11,C=CCn1c(SCC(=O)c2ccc(F)cc2)nnc1-c1ccc2c(c1)OCO2,"inconclusive: 18.5 µM [inhibitor, single point]"
12,Cc1nc(-c2cccc(S(=O)(=O)N3CC(C)OC(C)C3)c2)cs1 (stereo unspecified),"inconclusive: 0.0738 µM [inhibitor, full curve, poor fit]"
13,CCN(CC(=O)NC(=O)NCc1ccccc1)Cc1nc2ccccc2c(=O)[nH]1,"inconclusive: 11.7 µM [inhibitor, partial curve, poor fit]"
14,O=S(=O)(CCN1CCOCC1)c1ccc(OC(F)(F)F)cc1,inactive
15,Cc1ccc(C(=O)NC(=S)Nc2ccc(NC(=O)c3cccc(Cl)c3)cc2)cc1,"inconclusive: 4.65 µM [inhibitor, partial curve]"
16,COc1ccccc1CNC(=O)Cc1ccc(C)cc1,"inconclusive: 1.17 µM [inhibitor, single point]"
17,O=C(COc1ccc(S(=O)(=O)NC2CCCCC2)cc1)Nc1ccc2c(c1)OCCO2,"inconclusive: 4.15 µM [inhibitor, full curve, poor fit]"
18,CN(C)CCNC(=O)c1ccc2c(c1)NC(=O)c1ccccc1S2,"inconclusive: 13.1 µM [inhibitor, single point]"
19,COc1ccccc1CNC1CCN(Cc2ccccc2)CC1,"inconclusive: 18.5 µM [inhibitor, single point]"
20,CC(C)=CCN1CCN(Cc2c(C)nn(C)c2Cl)CC1CCO (stereo unspecified),inactive
21,O=C(CCC(=O)OCc1ccc(C(=O)Oc2ccc(Cl)cc2)cc1)Nc1ccccc1,"inconclusive: 18.5 µM [inhibitor, single point]"
22,CCC(NC(=S)NC1CCCCC1)c1ccc(C(C)C)cc1 (stereo unspecified),active: 3.29 µM
23,O=C(NCCNC(=O)c1cnccn1)c1cccc(Cl)c1,"inconclusive: 2.94 µM [inhibitor, partial curve]"
